According to PubChem BioAssay AID2685 (National Center for Advancing Translational Sciences (NCATS), 2010):
This is one part of the list. Further columns of the screen follow, without active or inactive calls. Most of these compounds were active or inconclusive in the main read-out, so they are no random draw. Words in brackets tell the shape of the fitted curve; partial curves, single points and poor fits give uncertain potencies.

Test: qHTS Assay for Lipid Storage Modulators in Drosophila S3 Cells;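 on cell number change: cells counted by Cell Tracker Red CMTPX staining in the red channel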
Conditions: BODIPY lipid droplet fluorescence, 18-24 h; for cell number change: measured here: cell count max response, cells fed with added oleic acid
Summary of the method: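 Laser-scanning cytometry quantifies lipid droplet accumulation (500–530 nm total intensity; droplet/cell object ratio) in oleic acid-fed (400 uM added) Drosophila S3 cells treated with a concentration series. 20 uM Triacsin C defined 100% inhibition.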

[1] = measured here: cell number channel AC50, cells fed with added oleic acid
[2] = measured here: lipid fluorescence (Fed channel) AC50, cells fed with added oleic acid

Compound | cell number change [%] | AC50 [1] | AC50 [2]
Cc1cc(C(=O)CSc2nc3ccc(Cl)cc3[nH]2)c(C)n1CC1CCCO1 (stereo not drawn) | -8.79 | – | –
COc1ccc(-c2cnc[nH]2)cc1 | 34.9 | 0.13 µM [rising, full curve] | –
CCN1C(=NCCOC)N[C@@H](c2ccccc2)[C@H](C(=O)OC)[C@H]1C | -9.97 | – | 6.51 µM [falling, single point]
COc1ccc(-c2nc3ccccc3nc2-c2ccc(OC)cc2)cc1 | 11.1 | – | –
Cc1nc2ccccc2n1CC(=O)NCc1ccccc1 | 4.03 | 2.06 µM [rising, partial curve] | 3.26 µM [rising, partial curve]
CCC(C)c1ccc(-c2cc(C(=O)OCC(=O)Nc3cc(C)on3)c3ccccc3n2)cc1 (stereo not drawn) | 132 | 4.61 µM [rising, partial curve] | 6.51 µM [rising, single point]
O=C(O)c1ccccc1-c1ccccc1C(=O)NNc1ccccc1 | 28.1 | 3.26 µM [rising, single point] | 0.0461 µM [falling, full curve]
Cc1cc(C)n2c(nc3ccccc32)c1C(=O)NCc1ccccc1 | 16.1 | 0.00517 µM [rising, full curve, poor fit] | 0.291 µM [rising, partial curve, poor fit]
COc1ccc(S(N)(=O)=O)cc1C(=O)NCC1(N2CCCCC2)CCCCC1 | -27.4 | – | 1.84 µM [falling, full curve]
CC(C)=CC(=O)Nc1ccc(Br)cc1 | – | 4.61 µM [rising, partial curve, poor fit] | –
Cc1ccc(C(=O)NCC(=O)OCC(=O)c2ccc3c(c2)NC(=O)CO3)cc1 | 23.2 | – | –
CCC(C)NC(=O)c1c(F)c(F)c(F)c(F)c1F (stereo not drawn) | -37.7 | 25.9 µM [falling, single point] | 25.9 µM [falling, partial curve]
Fc1ccc(-c2cc3nc4c(c(N5CCOCC5)n3n2)CCCC4)cc1 | -14.7 | – | –
CC1(C)CC(=O)C(CCC(=O)c2ccccc2)C(C)(C)N1 (stereo not drawn) | -25 | – | 29.1 µM [falling, single point]
Cc1ncsc1CCOC(=O)c1ccc(Cl)cc1 | – | – | 7.31 µM [falling, partial curve]
O=C(CNS(=O)(=O)c1ccccc1)OCC(=O)c1cccc([N+](=O)[O-])c1 | -44.5 | 29.1 µM [falling, single point] | 23.1 µM [falling, single point]
S=c1cnc2ccccc2[nH]1 | 4.04 | 0.0651 µM [falling, full curve, poor fit] | –
Cc1oc(-c2ccccc2)nc1CS(=O)CC(=O)N1CCc2ccccc2C1 (stereo not drawn) | -6.46 | – | 4.61 µM [rising, partial curve]
CSc1nc(NCCCO)c2c3c(sc2n1)CN(C)CC3 | 19.2 | – | 5.8 µM [rising, partial curve, poor fit]
CCn1c(SCC(=O)N/N=C/C=C\c2ccccc2[N+](=O)[O-])nnc1-c1ccccc1 | -14.6 | – | 0.326 µM [falling, partial curve]
CN(/N=C/c1ccncc1)c1cnc2ccccc2n1 | 18.5 | 0.146 µM [rising, full curve, poor fit] | –

Entries of single compounds as entered above. Order of values: cell number change [%] | AC50 [1] | AC50 [2]
Cc1ccc(C(=O)NCC(=O)OCC(=O)c2ccc3c(c2)NC(=O)CO3)cc1 in the list: 23.2 | – | –
Cc1ncsc1CCOC(=O)c1ccc(Cl)cc1 in the list: – | – | 7.31 µM [falling, partial curve]
COc1ccc(S(N)(=O)=O)cc1C(=O)NCC1(N2CCCCC2)CCCCC1 in the list: -27.4 | – | 1.84 µM [falling, full curve]

Next part:

Compound | cell number change [%] | AC50 [1] | AC50 [2]
C=CCSc1nc2sc3c(c2c(=O)n1CC)CCC3 | -14 | – | 29.1 µM [falling, single point]
N/C(=N\NC(=O)c1ccc(F)cc1)c1cc2ccccc2oc1=O | 36.4 | – | 1.46 µM [rising, partial curve]
CC1=CC(C)(C)N(C(=O)CSc2nnc(-c3ccccc3)o2)c2ccc(C)cc21 | – | 0.411 µM [rising, full curve, poor fit] | 0.366 µM [rising, partial curve, poor fit]
Cc1ccc(S(=O)(=O)N2CCCOC2CNC(=O)C(=O)NCc2ccc3c(c2)OCO3)cc1 (stereo not drawn) | 32.4 | 20.6 µM [rising, single point] | 14.6 µM [rising, partial curve]
CCOc1ccc(C2CC(=O)n3nc(C45CC6CC(CC(C6)C4)C5)nc3S2)cc1OC (stereo not drawn) | 8.8 | – | –
Cn1nc(-c2ccccc2)cc1NC(=O)c1ccccc1 | -20.6 | – | 4.61 µM [falling, partial curve]
COc1ccc(CC(=O)OCC(=O)NCc2ccc(Cl)cc2)cc1 | 17.3 | – | 0.651 µM [falling, full curve, poor fit]
O=C(OCCN(C1=NS(=O)(=O)c2ccccc21)c1ccc(Cl)cc1)c1ccco1 | -1.75 | – | –
O=C(CNC(=O)c1cn2ccccc2n1)Nc1ccc(F)c(F)c1 | 44.5 | 8.2 µM [rising, partial curve] | 9.2 µM [rising, partial curve]
Cc1c(Cl)cccc1NC(=O)CNC(=O)CCS(=O)(=O)c1ccc(F)cc1 | -19.2 | – | –
O=C(O)C1CCN(C(=O)c2ccc(Cl)cc2)CC1 | -40.2 | 0.82 µM [falling, full curve] | 11.6 µM [falling, partial curve]
C=CCOC(=O)CCCC(=O)NC1CCCCC1 | -106 | 18.4 µM [falling, single point] | –
COc1cc(/C=N/n2nnnc2N)ccc1OC(C)C | 6.31 | – | –
COC(=O)C1=NN(C(C)=O)C2(CC(=O)N(c3cc(C)cc(C)c3)C2=O)C1 (stereo not drawn) | -2.01 | – | 29.1 µM [rising, single point]
CCOC(=O)[C@@H]1[C@H]2COc3ccc(Br)cc3[C@H]2N2C(=O)N(c3ccc(F)cc3)C(=O)[C@]12C | 51.5 | 0.0731 µM [rising, full curve, poor fit] | 10.3 µM [rising, partial curve]
CCOC(=O)c1cc2c(C)n(-c3ccc(OCC)cc3)c(C)c2ccc1=O | -12.3 | – | 0.58 µM [falling, full curve, poor fit]
O=C(CCN1C(=O)c2ccccc2S1(=O)=O)Nc1ccc(Cl)cc1 | -3.88 | 0.82 µM [rising, single point] | –
Cc1cccc(C)c1N(CC(=O)N1CCCC1)S(C)(=O)=O | 12.1 | – | 6.51 µM [rising, single point]
O=S(=O)(c1cc(F)ccc1F)N1CCC2(CC1)OCCN2S(=O)(=O)c1cccs1 | 7.45 | – | 0.164 µM [falling, full curve, poor fit]
S=C1Cc2ccccc2C(c2ccc(Cl)cc2)N1 (stereo not drawn) | 19.2 | – | 0.00461 µM [rising, full curve, poor fit]
C[C@H](NC(=O)C(c1ccccc1)c1ccccc1)c1ccccc1 | 1.42 | 6.51 µM [rising, single point] | 3.26 µM [rising, single point]

Compound | cell number change [%] | AC50 [1] | AC50 [2]
Nc1nnc(Cc2ccc(Cl)c(Cl)c2)s1 | – | – | 5.8 µM [falling, partial curve]
COc1ccc(CNC(=O)CCc2c(C)nc3cc(-c4ccccc4OC)nn3c2C)cc1 | 2.39 | – | –
Cc1cccc(-c2noc(CN(C(=O)c3ccc4c(c3)OCO4)C(C)C)n2)c1 | -0.338 | – | –
Cc1cc(C)n(-c2ccc(C(=O)Nc3cccnc3Cl)cc2)n1 | – | 0.517 µM [rising, single point] | –
CCCCn1nnnc1NCc1ccc(OC)c(OC)c1OC | -17.4 | – | –
CCOC(=O)CNC(=O)c1cn(C)c(=O)c2cc(OC)c(OC)cc12 | -14.7 | – | –
O=C1c2ccccc2C(=O)c2c1cccc2N1CCCC1 | 12.8 | 6.51 µM [rising, partial curve, poor fit] | –
CC(SCc1ccccc1)C(=O)N/N=C/c1ccc(OCC(=O)NCc2ccco2)cc1 (stereo not drawn) | 19.1 | – | 32.6 µM [falling, single point]
CNc1cnn(-c2ccc(C)cc2)c(=O)c1Cl | -10.6 | 6.51 µM [falling, partial curve, poor fit] | –
COc1ccc2c(c1OC)C(=O)N1C2SC(C)(C)[C@H]1C(=O)NCCCOC(C)C (stereo partly drawn) | 11.1 | – | 0.82 µM [rising, full curve, poor fit]
Cc1ccc(-c2ccc(CCC(=O)O)n2-c2cccc(O)c2)cc1 | 7.05 | – | 0.0231 µM [falling, full curve, poor fit]
CN1CCN(CCCNC(=O)c2ccc(/C=C3\Oc4ccccc4N(Cc4ccccc4F)C3=O)cc2)CC1 | 0.895 | – | –
O=C(COC(=O)c1cc([N+](=O)[O-])ccc1N1CCOCC1)c1ccccc1Cl | -23.1 | – | 29.1 µM [falling, single point]
O=c1[nH]nc(Cc2ccc3ccccc3n2)c2ccccc12 | -35.8 | – | –
CC1CCN(c2ccc3nnc(CCC(=O)NCC(C)c4ccccc4)n3n2)CC1 (stereo not drawn) | 16.8 | – | 29.1 µM [falling, single point]
O=C(CNC(=S)NC(=O)c1ccc(Cl)cc1)c1ccccc1 | -12.8 | – | 0.461 µM [rising, full curve]
COc1ccc(-c2cc3c(=O)n(CC(=O)NCc4cccnc4)ncn3n2)cc1 | 24.8 | – | 0.13 µM [falling, full curve, poor fit]
CCOC(=O)C1CCN(C(=O)CC2C(=O)N(Cc3ccccc3)C(C)c3nc4ccccc4n32)CC1 (stereo not drawn) | -10 | – | –
CC(C)NOC(=O)c1ccc(Cl)cc1 | -30.8 | 1.46 µM [falling, partial curve] | 0.082 µM [falling, full curve, poor fit]
CCCC(C(=O)OCC)P(=O)(c1ccccc1)c1ccccc1 (stereo not drawn) | 1.04 | 1.3 µM [falling, partial curve, poor fit] | 1.16 µM [falling, full curve]

Part of the list above, tab-delimited:
Compound	cell number change [%]	AC50 [1]	AC50 [2]
Cc1cc(C)n(-c2ccc(C(=O)Nc3cccnc3Cl)cc2)n1	–	0.517 µM [rising, single point]	–
CCCCn1nnnc1NCc1ccc(OC)c(OC)c1OC	-17.4	–	–
